Data taken from PubChem BioAssay AID1919010 (Molecular Pharmacology Branch, DTP, NCI, 2023).
Where “and” joins values, the source holds several entries; their conditions need not be identical. Identical values can stand only once. This continues a long series; more values of the same kind are listed elsewhere.

System: Hs578T complex spheroid growth, percent test/control
Assay: Anticancer human tumor Hs578T cell line growth inhibition [AhR];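 further: luminescent viability signal as a proxy for spheroid growth; spheroids exposed to agents for one week after three days of growth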
Conditions: stronger effect = lower value
Description: Multicellular complex tumor spheroid response to aryl hydrocarbon receptor antagonists in combination with a variety of drugs and investigational agents in selected tumor cell lines
The current study was undertaken to assess response to aryl hydrocarbon receptor antagonists in combination with standard-of-care drugs and investigational agents in solid tumor complex spheroid models. Complex spheroids include a stromal component modeled by human endothelial cells (HUVEC) and fibroblasts modeled by human mesenchymal stem cells (MSCs). The concentration ranges selected for each drug and investigational agent were based upon clinically achievable concentrations if the clinical Cmax of the agent was known.
Compounds. The drugs and investigational agents: BAY 2416964 (NSC825713), GNF351 (NSC835774), CH-223191 (NSC835775), CPI-455 (NSC825282), aza-TdCyd (NSC777586), decitabine (NSC127716), belinostat (NSC758774), entinostat (NSC756642), pevonedistat (NSC761192), tazemetostat (NSC777109), talazoparib (NSC765396), olaparib (NSC753686), selinexor (NSC780203), nedisertib (M3814, NSC802822), bortezomib (NSC756655), venetoclax (NSC766270), doxorubicin (NSC123127), elimusertib (BAY189344, NSC800525), ceralasertib (AZD6738, NSC777638), TAK-243 (NSC785004), alisertib (NSC759677), etoposide (NSC141540), topotecan (NSC609699), eribulin (NSC707389), gemcitabine (NSC613327), carboplatin (NSC241240), cisplatin (NSC119875), and SN-38 (NSC673596) were obtained from the National Cancer Institute (NCI) Developmental Therapeutics Program Chemical Repository (32). The FDA-approved anticancer drug set is available from the Developmental Therapeutics Program at https://dtp.cancer.gov/organization/dscb/obtaining/available plates.htm. […] The stock solutions were prepared in dimethyl sulfoxide (DMSO, Sigma-Aldrich, St. Louis, MO, cat. D2650), except for the platinum compounds which were prepared in saline (Quality Biological, Gaithersburg, MD, cat. 114-055-101), at 800-fold the tested concentration and stored at -70 degrees C prior to their use. All drugs and investigational agents were tested over a range starting from a high concentration at or near the clinical Cmax and decreasing in half-log increments. If the clinical Cmax for an agent had not been determined, the highest concentration tested was 10 microM (Table 1).
Cell Culture. All cells were maintained in an incubator at 37 degrees C and 5% CO2 with 95% humidity. The PDC lines were cultured according to standard operating procedures established by the NCI PDMR (https://pdmr.cancer.gov). Briefly, all PDCs were thawed and cultured in Matrigel-coated flasks prepared with a working solution of 1X Ham's F-12 nutrient mix, without supplementation (Invitrogen, Waltham, MA, cat. 11765054), 100 U/mL penicillin-streptomycin (Invitrogen, cat. 15140122), and 2.5% Matrigel (Corning Inc., Corning, NY, cat. 354248) for the first three passages. All PDCs were cultured in complete DMEM/F-12 media containing advanced DMEM/F-12 (Invitrogen, cat. 12634028), 4.9% defined fetal bovine serum, heat inactivated (HyClone Laboratories Inc., Logan, UT, cat. SH30070.03HI), 389 ng/mL hydrocortisone (Sigma-Aldrich, cat. H4001), 9.7 ng/mL human EGF recombinant protein (Invitrogen, cat. PHG0313), 23.4 microg/mL adenine (Sigma-Aldrich, cat. A2786), 97.3 U/mL penicillin-streptomycin (Invitrogen, cat. 15140122), 1.9 mM L-glutamine (Invitrogen, cat. 25030081), and 9.7 microM Y-27632 dihydrochloride (Tocris Bioscience, Bristol, United Kingdom, cat. 1254). The PDCs were cultured in complete DMEM/F12 media without 10 microM Y-27632 dihydrochloride for at least two passages prior to the screen. The established cell lines NCI-H1341 and […] were cultured in DMEM/F-12, HEPES (Invitrogen, cat. 11330032), 5% defined fetal bovine serum (HyClone Laboratories Inc., cat. SH30070.03), ITS premix universal culture supplement [insulin (5 microg/mL), transferrin (5 microg/mL), and selenious acid (5 ng/mL)] […]

| Compound | viability, T/C (compound 0.1 µM) | viability, T/C (compound 0.316 µM) | viability, T/C (compound 1 µM) | viability, T/C (compound 3.16 µM) | viability, T/C (compound 10 µM) |
| --- | --- | --- | --- | --- | --- |
| CC(CO)NC(=O)c1cc(-c2ccc(Cl)cc2)nn(-c2cnn(C)c2)c1=O (stereo unspecified) | 118% and 109% and 107% (2×) | 123% | 120% | 117% [middle of 4 runs] | – |
| Cc1ccccc1N=Nc1ccc(NC(=O)c2ccnn2C)c(C)c1 | – | 106% (2×) and 120% | 104% and 101% | 95.5% [middle of 5 runs] | 69.3% [middle of 5 runs] |
| Cc1cncc(-c2nc(NCCc3c[nH]c4ccccc34)c3ncn(C(C)C)c3n2)c1 | 117% and 105% (2×) | – | 114% and 98.9% | – | 5.15% [middle of 5 runs] |
